Results from paper doi:10.1101/2025.10.10.681713.

T1: LIN9 (mouse (endogenous in urothelial organoids)) (UniProt Q8C735)
T1 sequence: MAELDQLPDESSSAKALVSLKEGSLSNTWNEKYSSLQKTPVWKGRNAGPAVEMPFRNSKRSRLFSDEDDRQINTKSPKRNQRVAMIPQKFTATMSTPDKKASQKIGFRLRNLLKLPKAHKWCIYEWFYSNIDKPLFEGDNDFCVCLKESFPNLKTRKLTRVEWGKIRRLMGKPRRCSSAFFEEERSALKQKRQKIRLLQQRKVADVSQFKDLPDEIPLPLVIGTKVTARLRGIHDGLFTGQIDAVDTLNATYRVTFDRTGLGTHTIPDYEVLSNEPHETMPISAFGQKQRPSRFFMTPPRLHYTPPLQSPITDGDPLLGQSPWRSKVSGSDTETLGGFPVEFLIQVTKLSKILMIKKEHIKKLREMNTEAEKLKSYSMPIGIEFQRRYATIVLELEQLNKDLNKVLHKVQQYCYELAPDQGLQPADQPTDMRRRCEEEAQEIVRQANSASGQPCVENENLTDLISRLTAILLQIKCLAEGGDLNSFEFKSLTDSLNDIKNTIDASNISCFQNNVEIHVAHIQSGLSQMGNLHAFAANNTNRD


Target: T1, LIN9 (mouse (endogenous in urothelial organoids))
Assay: affinity purification with mass spectrometry

binding | Binder
binds | LIN52 (protein, UniProt Q8CD94 1-112) MASPTDGTDLEASLLSFEKLDRASPDLWPEQLPGVAEFAASFKSPITSSPPKWMAEIERDDIDMLKELGSLTTANLMEKVRGLQNLAYQLGLDESREMTRGKFLNILEKPKK
binds | p130 (protein, UniProt Q64700 1-1135) MASGGNQSPPPPPAAAASSEEEEEDGDAADRAQPAGSPSHQIQQRFEELCSRLNMDEAARAEAWSSYRSMSESYTLEGNDLHWLACALYVACRKSVPTVSKGTAEGNYVSLTRILRCSEQSLIEFFNKMKKWEDMANLPPHFRERTERLERNFTVSAVIFKKYEPIFQDIFKYPQEEQPRQQRGRKQRRQPCTTSEIFHFCWVLFIYAKGNFPMISDDLVNSYHLLLCALDLVYGNALQCSNRKELVNPNFKGLSEDCHPKDSKASSDPPCVIEKLCSLHDGLVLEAKGIKEHFWKPYIRKLFEKKLLKGKEENLTGFLEPGNFGESFKAVNKAYEEYVLAAGNLDERVFLGEDAEEEVGTLSRCLSAASGTESAERTQMRDILQQHLDKSKALRVCTPLTGVRYVQENSPCVTPVSTAAHSLSRLHTMLSGLRNAPSEKLERILRSCSRDPTQAIADRLKEMYEIYSQHFQPDENFSNCAKEIANKHFRFAEMLYYKVLESVIEQEQKRLGDMDLSGVLEHDAFHRSLLACCLEVVAFSHKPPGNFPFIAEIFDVPHYHFYKVIEVFIRAEDGLCREVVKHLNQIEEQILDHLAWKTKSPLWDRIRDNENRVPTCEEVMPPQNLERTDEIYIAGSPLTPRRVGEVRADAGGLGRSITSPTTLYDRYSSPTVSTTRRRLFENDSPSEGSTSGRIPPQPLVNAVPVQNVPGETVSVTPVPGQTLVTMATATVTANNGQTVTIPVQGIANENGGITFFPVQVNVGGQAQAVAGSIQPLSAQALAGSLSSQQVTGTTLQVPGPVAIQQISPGGQQQNPGQPLTSSSIRPRKTSSLALFFRKVYYLAGVRLRDLCIKLDISDELRKKIWTCFEFSIIQCTELMMDRHLDQLLMCAIYVMAKVTKEDRSFQNIMRCYRTQPQARSQVYRSVLIKGKRRNSGSSESRSHQNSPTELNTDRASRDSSPVMRSNSTLPVPQPSSAPPTPTRLTGASSDVEEEERGDLIQFYNNIYRKQIQAFAMKYSQANAQTDTPPLSPYPFVRTGSPRRVQLSQSHPIYISPHNNEAMPSPREKIFYYFSNSPSKRLREINSMIRTGETPTKKRGILLDDGSESPAKRICPENHSALLRRLQDVANDRGSQ

No constants are given. Whether binding was seen depends on the method and setting. In cells and extracts the contact can be indirect. A yes stands for co-enrichment or nearness to the bait. Other partners may have been found.
